No constants are given. Whether binding was seen depends on the method and setting. For some assays here: Binding seen in cells or lysates may run through a third protein. Some entries that bind do so weakly or less than the wild type. For some assays here: Where a sequence is shown, tags or fusion partners need not be part of it. Values belong to the binder of their own block, whether it stands above or below them.
What was measured:
[1] = target: T1, GST-Nrf2 (YB710012, Ybio) (human) (UniProt Q16236); test: pull-down; GST pull-down with GST-Nrf2 and truncated forms of DHRS3 (1-215, 1-190, 1-100 aa) beside the full-length protein; same method as the GST-Nrf2/DHRS3 pull-down
T1 sequence: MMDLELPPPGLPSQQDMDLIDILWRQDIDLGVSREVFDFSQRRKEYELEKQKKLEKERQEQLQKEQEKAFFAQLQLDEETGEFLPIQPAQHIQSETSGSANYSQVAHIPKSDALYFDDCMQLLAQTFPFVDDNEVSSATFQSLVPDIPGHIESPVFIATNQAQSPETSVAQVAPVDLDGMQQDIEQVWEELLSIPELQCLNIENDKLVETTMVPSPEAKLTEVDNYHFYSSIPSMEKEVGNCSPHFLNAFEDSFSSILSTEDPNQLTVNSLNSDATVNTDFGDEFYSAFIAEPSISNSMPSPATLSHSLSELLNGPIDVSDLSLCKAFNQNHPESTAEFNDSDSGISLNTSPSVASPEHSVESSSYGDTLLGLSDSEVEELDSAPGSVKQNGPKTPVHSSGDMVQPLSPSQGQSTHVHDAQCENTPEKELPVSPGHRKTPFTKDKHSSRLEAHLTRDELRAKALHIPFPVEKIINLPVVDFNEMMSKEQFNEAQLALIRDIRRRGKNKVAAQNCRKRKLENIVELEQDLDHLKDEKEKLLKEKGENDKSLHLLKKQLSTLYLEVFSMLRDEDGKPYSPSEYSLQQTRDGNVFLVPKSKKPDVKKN

[2] = target: T2, Nuclear factor erythroid 2-related factor 2 (Nrf2), endogenous in SH-SY5Y cells (human (endogenous in SH-SY5Y)) (UniProt Q16236); test: co-IP; endogenous proteins in SH-SY5Y whole cell lysate; antibody 12 h at 4 °C, protein A/G magnetic beads, western blotting; cells under physiological or OGD/R conditions, treated with Cpd.51 (100 nM) or vehicle (DMSO)
T2 sequence: T1 sequence

[3] = target: T1, GST-Nrf2 (YB710012, Ybio) (human); test: pull-down; GST-Nrf2 (or GST as control) on GST resin 2 h at 4 °C; DHRS3 added with or without Cpd.51 (100 nM), rotated overnight at 4 °C; western blotting; both purified

binding [1]: binds
B1: DHRS3 fragment (1-190 aa) (domain or fragment, UniProt O75911 1-190)
chain: MVWKRLGALVMFPLQMIYLVVKAAVGLVLPAKLRDLSRENVLITGGGRGIGRQLAREFAERGARKIVLWGRTEKCLKETTEEIRQMGTECHYFICDVGNREEVYQTAKAVREKVGDITILVNNAAVVHGKSLMDSDDDALLKSQHINTLGQFWTTKAFLPRMLELQNGHIVCLNSVLALSAIPGAIDYCT

binding [2]: binds
B2: Dehydrogenase/reductase (SDR family) member 3 (DHRS3), endogenous in SH-SY5Y cells (protein, UniProt O75911 1-302)
chain: MVWKRLGALVMFPLQMIYLVVKAAVGLVLPAKLRDLSRENVLITGGGRGIGRQLAREFAERGARKIVLWGRTEKCLKETTEEIRQMGTECHYFICDVGNREEVYQTAKAVREKVGDITILVNNAAVVHGKSLMDSDDDALLKSQHINTLGQFWTTKAFLPRMLELQNGHIVCLNSVLALSAIPGAIDYCTSKASAFAFMESLTLGLLDCPGVSATTVLPFHTSTEMFQGMRVRFPNLFPPLKPETVARRTVEAVQLNQALLLLPWTMHALVILKSILPQAALEEIHKFSGTYTCMNTFKGRT

binding [3]: binds | binding [1]: binds
B3: DHRS3 (YB765100, Ybio) (protein, UniProt O75911 1-302)
chain: B2 chain

binding [1]: binds
B4: DHRS3 fragment (1-215 aa) (domain or fragment, UniProt O75911 1-215)
chain: MVWKRLGALVMFPLQMIYLVVKAAVGLVLPAKLRDLSRENVLITGGGRGIGRQLAREFAERGARKIVLWGRTEKCLKETTEEIRQMGTECHYFICDVGNREEVYQTAKAVREKVGDITILVNNAAVVHGKSLMDSDDDALLKSQHINTLGQFWTTKAFLPRMLELQNGHIVCLNSVLALSAIPGAIDYCTSKASAFAFMESLTLGLLDCPGVSAT

Reference: publication PMC13081163, “Discovery of a novel Nrf2 activator that modulates mitochondrial function in neurons by regulating DHRS3-Nrf2 interaction after ischemic stroke” (Theranostics, 2026)
